# Test results published in article PMC5662874.
# No constants are given. Whether binding was seen depends on the method and setting. Binding seen in cells or lysates may run through a third protein. For some assays here: A result given as binding can be weak or reduced; the word gives no strength. Where a sequence is shown, tags or fusion partners need not be part of it.
# What was measured:
# [1] = target: zebrafish catalytic inactive FLAG-Caspa mutant (C230A) (zebrafish); assay: co-IP; called pull down by the paper; HEK293T cells co-transfected, lysed in 50 mM Tris-HCl, 150 mM NaCl, 1% NP40; 1 mg lysate with ANTI-FLAG M2 Affinity Gel 2 h at 4°C; blots probed for FLAG and mCherry
# [2] = target: zebrafish wild-type FLAG-Caspa (caspase a) (zebrafish); assay: as above
binder,measurement,setting,value
"zebrafish Caiap-mCherry (CARD- and ANK-containing Inflammasome Adaptor Protein fused to mCherry) (protein, UniProt Q5TYM7 1-744) MGSTSFTNPYAIEVIQMKRSELVSGILNPEDLLDLLIANGVLQPDIRVLVSDLTVREEKNSRMLNILISRGERACRIFFYPCLKRAEPDLYQHMRTYVGGVNEGIRDARRQLIGYLLEKDKQGLVKNSKPERIHPKSTANEPNNEPLNKQILKSESNHHDAILEAISSGDLYLLQELTKELDVNSVLSSNDTLLHHAAEYGKEAIVYFLLRQGAKLDLKDKEGRTALHRAAQRGHTAVAVALAKAGADIHATDQTSKTPLHLAAQNGHEGCVKALVHEEKKSLKNQTTVLHMAAIEDNATLAEVLLRNGALVDAQDGQRKTALHHAVRHGNEKTAAVLLKAGAQVDSRIVDAAFQLNRKSLLSLFLQHVHESMSQTEINAALFKAVQRNLDAVVAALIEHGADVNSCNELGYTPVLLAAELGNGEAFKVLVSKKAKLDERLPNQMSSLHLAVQSGSIQIAQILLHKGIDPNISGPKDQTPLHLSASHNQPAMMALLLRVGAQLNPVTQDGFTPLHLASQNGHTEAVAQLLEAKADVHAKDKQGRTALHWAAEQGEVAIIQSLLAAGAYSNASEREKKTPLHLAAAEGHTKAVSALLAGKAKVGAKDMDGCSPLHYAARNGKERAGSVLLASSKSKNVDDKNVWRRTALHLAAEHGHEALVGILLENKAKINALDNNKDTPLHCACKTGHLGTVQRLINWTNGERANLQATNNVKKNALQVAEAGDTEAHENISTLLKKKMFLVK",binding,[1],no binding
same,binding,[2],binds
